The values below come from patent CN1510052A.

Chains of the proteins cited; added tags and fusions are not shown. Residues count along the entry.
UniProt P01375, residues 77-233: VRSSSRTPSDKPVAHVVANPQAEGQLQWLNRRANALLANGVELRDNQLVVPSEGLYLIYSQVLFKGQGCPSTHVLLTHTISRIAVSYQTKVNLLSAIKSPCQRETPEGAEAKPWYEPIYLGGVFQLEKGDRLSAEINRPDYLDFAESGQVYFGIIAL

Test [1] deals with 重组人TNF(rhTNF)抗原 (human) (UniProt P01375). Description: Western blot with soluble scFv from periplasmic extract.
Test [2] has the same target. In words: phage ELISA: rhTNF coated on plate, scFv displayed on phage, HRP anti-M13 detection.

These are yes or no findings as the source states them, for the method shown. Some entries that bind do so weakly or less than the wild type.

B1: 克隆2 人源性单链抗体(scFv) (scFv)
scFv: MANVQLVQSGAEVKKPGESLKISCKGSGYSFTSYWIGWVRQMPGKGLEWMGIIYPGDSDTRYSPSFQGQVTISADKSISTAYLQWSSLKASDTAMYYCASHGWGMDVWGQGTLVTVSSGGGGSGGGGSGGGGSAAVLTQPSSVSGAPGQRVTISCTGSSSNIGAGYDVHWYQQLPGTAPKLLIYGNSNRPSGVPDRFSGSKSGTSASLAITGLAAEDEADYYCQSYDSSLSGSVFGGGTKLTVL
Consider B1, for which the binding result with 重组人TNF(rhTNF)抗原 (human) [1] and with 重组人TNF(rhTNF)抗原 (human) [2] was “binds” throughout.
